# Experimental data from patent US20250387458A1, “COACTIVE COMBINATIONS OF ANTIMICROBIALS WITH DISPERSINB” (KANE BIOTECH INC., priority 2020, published 2025).
# Tests used:
# S. epidermidis biofilm [1] = test: Biofilm dispersal by DspB gel formulations (Method 5); type: cell-based, Staphylococcus epidermidis
# Procedure: Method 5: Method to Test Biofilm Dispersal by DspB Gel Formulations
# S. epidermidis biofilm was grown in 96-well plate and washed three times to remove planktonic cells. Then biofilm was treated using different DspB formulations appropriate treatment duration (10 min-1 h). After treatments, gels were removed and washed 3 times with sterile distilled water to remove excess gel and dispersed biofilm. Remaining biofilms in 96-well plates were stained using Crystal violet and unbound crystal violet was removed by washing the wells with sterile water, the biofilm bound crystal violet was eluted using 33% acetic acid, and the absorbance at 620 nm was taken using a microwell plate reader.
# Gels containing DspB and selected concentrations of antimicrobials were formulated in 50 mM phosphate buffer or citrate buffer containing 16% PF127. DspB gel and antimicrobial gel were mixed together and incubated at 37° C. for 2 h. Biofilm dispersal was performed at 0 and 2 h using biofilm dispersal assay (Method 5). Blank gel, DspB gel and antimicrobial gels were included as controls.
# S. epidermidis biofilm [2] = test: Compatibility between antimicrobials or antibiotics and DspB, biofilm dispersal assay in buffer (Method 3); type: cell-based, Staphylococcus epidermidis
# Procedure: Method 3: Method to Test Compatibility Between Antimicrobials or Antibiotics and DspB Using Biofilm Dispersal Assay
# S. epidermidis biofilm was grown in 96-well plate and washed three times using sterile water to remove planktonic cells. Antimicrobials or antibiotics and DspB formulations were prepared in 50 mM phosphate or citrate buffer and stored at 37° C. for 2 h and used for treating biofilm at 0 and 2 h. Biofilm was treated using antimicrobials or antibiotics and DspB formulations for 10 min. After treatments, solutions were removed and washed 3 times to remove dispersed biofilm. Remaining biofilms in 96-well plates were stained using Crystal violet, unbound crystal violet was removed by washing the wells with sterile water, the biofilm bound crystal violet was eluted using 33% acetic acid, and the absorbance at 620 nm was taken using a microwell plate reader. Percent biofilm removal was calculated. Data was analyzed using ANOVA and Tukey's test.
compound,measurement,setting,value
CCCCCCCCCCCCCCCC[n+]1ccccc1.[Cl-] [Cetylpyridinium chloride],Biofilm dispersal of gel containing DspB and antimicrobial compared with gel containing DspB alone,S. epidermidis biofilm [1],similar
same,"Synergy or compatibility with DspB, M: microbiological (biofilm dispersal assay; biofilm inactivation not tested)",S. epidermidis biofilm [1],M: compatible
same,"Synergy or compatibility with DspB, M: microbiological (biofilm dispersal assay; biofilm inactivation not tested)",S. epidermidis biofilm [2],M: compatible
